# Where “and” joins values, the source holds several entries; their conditions need not be identical. Equal entries are not always repeated. Out of some 320,000 compounds screened, about 22,000 (6.9%) were called active. Inconclusive means that the source gave no clear call. Such entries were picked first, then a sample of the others. Calls come from the whole dose curve; as a rule, active = well fitted inhibition curve with a large enough effect; inconclusive = small, poorly fitted or top-dose-only effect, or another doubt; inactive = no such curve, though single readings can be large or run the other way. Where the call is inconclusive, the potency comes from a doubtful curve fit.
# Assay: Primary qHTS for delayed death inhibitors of the malarial parasite plastid, 96 hour incubation
# Details: P. falciparum luciferase reporter growth; series mostly up to 28.7 µM
# In short: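 Delayed-death screen, second-generation endpoint: infected erythrocytes, 2% hematocrit, 0.05% parasitemia final; 96 hours at 37 C, 5% CO2; luciferase detection reagent; luminescence decrease equals reduced growth.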
# % is set by controls: 0 for no effect and ±100 for the full control effect; potency is the fitted concentration of half-maximal effect.
SMILES,Potency,"activity change, negative = inhibition"
CN(C)S(=O)(=O)N1CCN(C(=O)c2ccccc2Cl)CC1,"inconclusive: 0.294 µM [inhibitor, partial curve, poor fit]",
CCOc1ccc(NCc2ccccc2OCc2cccc(F)c2)cc1,"inconclusive: 18.5 µM [inhibitor, single point]",
COc1ccc(-n2c(COc3ccc(C)cc3)nnc2SCc2ccc(C#N)cc2)cc1,"inconclusive: 11.7 µM [inhibitor, single point]",
Cc1cc(NC(=O)CSc2nnc(-c3ccncc3)n2C)n(-c2ccccc2)n1,inactive,
N#Cc1c(NC(=S)NC(=O)c2ccccc2)sc2c1CCN(CCc1ccccc1)C2,active: 2.62 µM,
CCCn1c(NC(=O)C2CCN(C(=O)c3ccccc3C)CC2)nc2ccccc21,"inconclusive: 9.28 µM [inhibitor, partial curve, poor fit]",
CCC(O)C(C)(C)C (stereo not drawn),"inconclusive: 1.47 µM [inhibitor, partial curve, poor fit]",
COc1cccc(N=c2oc3ccccc3cc2-c2nc3ccccc3[nH]2)c1,"inconclusive: 18.5 µM [inhibitor, single point]",
CCOC(=O)C1(Cc2cccc(OC)c2)CCN(CCO)CC1,"inconclusive: 10.4 µM [inhibitor, single point]",
O=C(Nc1ccncc1)c1ccc(Cl)cc1,"inconclusive: 1.17 µM [inhibitor, partial curve, poor fit]",
Cc1cc(=O)oc2cc(OCC(=O)NC3CCN(Cc4ccccc4)CC3)c(Cl)cc12,"inconclusive: 18.5 µM [inhibitor, single point]",
COCCN(C(=O)COC(=O)c1cc2c(s1)CCC2)c1c(N)n(Cc2ccccc2)c(=O)[nH]c1=O,"inconclusive: 11.7 µM [inhibitor, partial curve]",
O=C(c1c[nH]c2ccccc12)C(Cl)c1ccccc1 (stereo not drawn),"inconclusive: 2.08 µM [inhibitor, partial curve, poor fit]",
CCCN1CCC(NC23CC4CC(CC(C4)C2)C3)CC1,"inconclusive: 11.7 µM [inhibitor, partial curve]",
CSc1nc2ncc3c(n2n1)CC1c2ccccc2CCN1C3=O (stereo not drawn),"inconclusive: 10.4 µM [inhibitor, single point]",
O=C(CN1CCN(c2ccc(O)cc2)CC1)Nc1ccc(SC(F)F)cc1,"inconclusive: 5.22 µM [inhibitor, partial curve, poor fit]",
CCN1CCN(CCCNC(=O)CCCn2nc(C)c3sc4ccccc4c3c2=O)CC1,"inconclusive: 1.47 µM [inhibitor, full curve]",
CC(=O)Nc1ccc(C2=NN(Cc3nnc(-c4ccccc4)o3)C(=O)SC2)cc1,"inconclusive: 18.5 µM [inhibitor, single point]",
O=[N+]([O-])c1cc(/C=N/N2CCN(C3c4ccccc4-c4ccccc43)CC2)ccc1Cl,"inconclusive: 18.5 µM [inhibitor, single point]",
N#Cc1c(/N=C/c2c(O)n(Cc3ccco3)c(=O)[nH]c2=O)sc2c1CCCC2,"inconclusive: 11.7 µM [inhibitor, single point]",
CCn1c(=O)c(C(=O)Nc2ccccc2C)c(O)c2ccccc21,"inconclusive: 18.5 µM [inhibitor, single point]",
CCc1ccc(NC(=O)CN2C(=O)COc3ccc(S(=O)(=O)N4CCCC4)cc32)cc1,"inconclusive: 11.7 µM [inhibitor, partial curve, poor fit]",
O=C(COc1ccc(Nc2ccccc2)cc1)Nc1ccncc1,inactive,

# Reprinted from the listing, 4 compounds:
SMILES,Potency,"activity change, negative = inhibition"
Cc1cc(=O)oc2cc(OCC(=O)NC3CCN(Cc4ccccc4)CC3)c(Cl)cc12,"inconclusive: 18.5 µM [inhibitor, single point]",
COCCN(C(=O)COC(=O)c1cc2c(s1)CCC2)c1c(N)n(Cc2ccccc2)c(=O)[nH]c1=O,"inconclusive: 11.7 µM [inhibitor, partial curve]",
O=C(c1c[nH]c2ccccc12)C(Cl)c1ccccc1 (stereo not drawn),"inconclusive: 2.08 µM [inhibitor, partial curve, poor fit]",
CCCN1CCC(NC23CC4CC(CC(C4)C2)C3)CC1,"inconclusive: 11.7 µM [inhibitor, partial curve]",

# Later entries

SMILES,Potency,"activity change, negative = inhibition"
CC(CCc1ccccc1)NC(=O)COC(=O)c1ccc(NC(=O)CC#N)cc1 (stereo not drawn),"inconclusive: 10.4 µM [inhibitor, single point]",
CCOC(=O)N1CCN(S(=O)(=O)c2ccc3c(c2)CCN3C(=O)C2CCC2)CC1,"inconclusive: 18.5 µM [inhibitor, single point]",
CCOc1ccc(S(=O)(=O)N2CCCCC2)cc1NC(=O)CCNC(=O)c1ccco1,"inconclusive: 1.17 µM [inhibitor, full curve, poor fit]",
N#CCCN(C(=O)COC(=O)CCc1nc2ccccc2c(=O)[nH]1)c1ccc(F)cc1,inactive,
O=C(Nc1ccccc1)c1cc([N+](=O)[O-])ccc1Cl,inactive,
COc1ccc(C(=O)N/N=C/c2cc3ccccc3[nH]c2=O)cc1,inactive,
COc1ccccc1NC(=O)N1CCC(NC(=O)C2CCCCC2)CC1,inactive,
C=CCOCC(O)Cn1c(N2CCCC2)nc2c1c(=O)n(C)c(=O)n2C (stereo not drawn),"inconclusive: 9.28 µM [inhibitor, partial curve, poor fit]",
CC(=O)c1ccc(NCC(=O)N2CCN(S(=O)(=O)c3ccccc3)CC2)cc1,"inconclusive: 18.5 µM [inhibitor, single point]",
CC(=O)Nc1ccccc1C(=O)C(=O)Nc1cccc(Br)c1,"inconclusive: 16.5 µM [inhibitor, single point]",
CN(c1ccc([N+](=O)[O-])cc1C(=O)Nc1ccccc1)C1CCCCC1,"inconclusive: 18.5 µM [inhibitor, single point]",
CNC(=O)N(O)C1N(/N=C/c2cc(Br)ccc2O)C(=S)SC1(C)C (stereo not drawn),inactive,
COC(=O)c1ccc(CSc2nc3ccccc3c(=O)n2CC(C)C)o1,"inconclusive: 0.0928 µM [inhibitor, full curve, poor fit]",
Cc1ccccc1N1CC(C(=O)Nc2ccc3c(c2)OCO3)CC1=O (stereo not drawn),inactive,
N#Cc1c(NC(=O)CSc2nc(N)cc(=O)[nH]2)sc2c1CCCCCC2,inactive,
CN(Cc1ccccc1)c1nc(N)nc(Cl)c1C=O,"inconclusive: 3.29 µM [inhibitor, full curve, poor fit]",
N#CCC1c2ccccc2CCN1C(=O)Nc1ccc(C(F)(F)F)cc1 (stereo not drawn),active: 5.86 µM,
Cc1nnc(SCC(=O)N/N=C/c2ccc(-c3ccc(C)c(Cl)c3)o2)s1,"inconclusive: 20.8 µM [inhibitor, partial curve, poor fit]",
COC(=O)[C@H](CC(C)C)NC(=O)Nc1ccc2c(c1)OCCO2,"inconclusive: 5.22 µM [inhibitor, partial curve, poor fit]",
C#CCCOC(=O)N1C2=NC(C(=O)OC)=C(C(=O)OC)[C@@H]3N(CC=C)c4ccccc4[C@]23C[C@H]1C(=O)OC,"inconclusive: 18.5 µM [inhibitor, single point]",
CC(C)(C)c1nnc(N/N=C/c2ccc(Br)cc2)n(N)c1=O,inactive,
Cc1nc2ccc(S(=O)(=O)Nc3cccc(-c4nc5cccnc5s4)c3C)cc2s1,"inconclusive: 18.5 µM [inhibitor, single point]",
COc1cccc(-c2ncc3ccccc3c2COC(=O)c2cccc(Br)c2)c1,active: 4.65 µM,

SMILES,Potency,"activity change, negative = inhibition"
COc1ccc2nc(N3C(=O)CNC3=S)sc2c1,"inconclusive: 18.5 µM [inhibitor, single point]",
N#C/C(=C\c1ccccn1)c1nc2ccccc2s1,"inconclusive: 9.28 µM [inhibitor, single point]",
Clc1ccc(NCc2cccnc2)cc1,inactive,
Cc1ccc(NS(=O)(=O)c2ccc3c(c2)NC(=O)CCS3)cc1C,"inconclusive: 1.85 µM [inhibitor, full curve]",
NC(=O)c1c(NC(=O)c2ccc(N3C(=O)CCC3=O)cc2)sc2c1CCCC2,"inconclusive: 18.5 µM [inhibitor, single point]",
CC(=O)NCCc1nc2cc(NC(=O)COc3cccc(C)c3)ccc2n1C,"inconclusive: 3.7 µM [inhibitor, partial curve]",
Cc1sc2nc(SCC(=O)N3CCCCC3)[nH]c(=O)c2c1C,inactive,
N#CC(C#N)=C1C=CC=CN1/C(=C\c1ccco1)C(=O)c1ccccc1,"inconclusive: 11.7 µM [inhibitor, single point]",
O=C(NCSc1ccccc1)c1ccccc1,inactive,
COc1ccccc1CNC(=O)Cc1ccc(Br)cc1,inactive,
Cc1ccc(-c2nnn3c2nc(Cl)c2ccccc23)cc1,inactive,
CN1c2ccccc2-c2nc3ccccc3n2C1c1ccncc1 (stereo not drawn),"inconclusive: 2.62 µM [inhibitor, partial curve, poor fit]",
Cc1cc(=O)[nH]c2c1cnn2C(C)c1ccccc1 (stereo not drawn),inactive,
COCCN=C1N[C@@H](c2ccccc2)C(C(=O)OC)=C(C)N1Cc1ccccc1,"inconclusive: 18.5 µM [inhibitor, single point] and inconclusive: 10.4 µM [inhibitor, single point]",
CCOc1cc(N2CCOCC2)c(OCC)cc1NC(=O)c1c(-c2ccccc2Cl)noc1C,"inconclusive: 4.15 µM [inhibitor, partial curve, poor fit]",
O=C(NCc1ccncc1)C(=O)Nc1nc(C23CC4CC(CC(C4)C2)C3)cs1,inactive,
CCN1CCCC1CN=Cc1c(O)n(-c2ccccc2)c(=O)c2ccccc12 (stereo not drawn),,inactive: 4.54% [at 5.75 µM]
COc1ccc(OC)c(NC(=O)c2ccccc2NS(=O)(=O)c2cccc3cccnc23)c1,inactive,
Clc1ccc(Cn2ccc3ccccc32)cn1,"inconclusive: 14.7 µM [inhibitor, partial curve, poor fit]",
Cc1ccc(NC(=O)/C(C#N)=C/c2cc(C)n(-c3ccc(N4CCOCC4)c([N+](=O)[O-])c3)c2C)c(C)c1,active: 11.7 µM,
Clc1ccc(-c2nc3ccccn3c2CN2CCSCC2)cc1,"inconclusive: 13.1 µM [inhibitor, partial curve]",
N/C(Cc1nc2ccccc2s1)=N\O,"inconclusive: 14.7 µM [inhibitor, single point]",

# — PubChem BioAssay AID504834 (National Center for Advancing Translational Sciences (NCATS), 2011)
